Data from PMC12247140.
Results are given in words; binding and its absence hold for the method and conditions named. In cells and extracts the contact can be indirect. Some binding calls cover weakened binding; strength is not graded here.

Target: T1, musclin (UniProt P61364)
T1 sequence: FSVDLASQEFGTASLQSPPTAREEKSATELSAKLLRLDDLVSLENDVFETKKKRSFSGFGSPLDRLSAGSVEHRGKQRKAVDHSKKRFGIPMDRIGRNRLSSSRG
Assay: co-IP; lysates of primary mouse PASMCs, untreated or treated with musclin (50 nM, 24 h); IP and input lysates blotted with antibodies against NPR3 and TFR1

binding: binds
B1: natriuretic peptide receptor 3 (receptor, UniProt P70180 41-536)
chain: EALAAQKIEVLVLLPRDDSYLFSLARVRPAIEYALRSVEGNGTGRKLLPPGTRFQVAYEDSDCGNRALFSLVDRVAAARGAKPDLILGPVCEYAAAPVARLASHWDLPMLSAGALAAGFQHKDTEYSHLTRVAPAYAKMGEMMLALFRHHHWSRAALVYSDDKLERNCYFTLEGVHEVFQEEGLHTSAYNFDETKDLDLDDIVRYIQGSERVVIMCASGDTIRRIMLAVHRHGMTSGDYAFFNIELFNSSSYGDGSWRRGDKHDSEAKQAYSSLQTVTLLRTVKPEFEKFSMEVKSSVEKQGLNEEDYVNMFVEGFHDAILLYVLALHEVLRAGYSKKDGGKIIQQTWNRTFEGIAGQVSIDANGDRYGDFSVVAMTDTEAGTQEVIGDYFGKEGRFQMRSNVKYPWGPLKLRLDETRIVEHTNSSPCKSSGGLEESAVTGIVVGALLGAGLLMAFYFFRKKYRITIERRNQQEESNIGKHRELREDSIRSHFSVA
